From PMC4483769 come the findings set out here.

Sequences of proteins named here, by UniProt entry; tags and fusion partners are left off.
UniProt P60953: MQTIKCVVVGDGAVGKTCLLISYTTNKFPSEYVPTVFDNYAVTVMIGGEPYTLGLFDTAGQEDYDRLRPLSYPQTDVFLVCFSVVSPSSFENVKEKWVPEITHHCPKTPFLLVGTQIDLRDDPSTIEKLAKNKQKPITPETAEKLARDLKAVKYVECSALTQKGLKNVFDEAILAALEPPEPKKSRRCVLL
UniProt P61006: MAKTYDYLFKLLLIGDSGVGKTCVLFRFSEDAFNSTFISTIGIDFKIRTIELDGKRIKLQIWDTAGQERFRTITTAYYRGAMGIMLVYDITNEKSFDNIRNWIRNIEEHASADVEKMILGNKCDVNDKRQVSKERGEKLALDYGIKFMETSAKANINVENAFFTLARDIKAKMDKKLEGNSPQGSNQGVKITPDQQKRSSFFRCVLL

These are yes or no findings as the source states them, for the method shown. Binding seen in cells or lysates may run through a third protein. Some results given as binding are weak or reduced against the parent protein; the word gives no strength. Where a sequence is shown, tags or fusion partners need not be part of it.

Test [1] concerns the target T1, 3×Flag-GPR177 (UniProt Q5T9L3).
T1 sequence: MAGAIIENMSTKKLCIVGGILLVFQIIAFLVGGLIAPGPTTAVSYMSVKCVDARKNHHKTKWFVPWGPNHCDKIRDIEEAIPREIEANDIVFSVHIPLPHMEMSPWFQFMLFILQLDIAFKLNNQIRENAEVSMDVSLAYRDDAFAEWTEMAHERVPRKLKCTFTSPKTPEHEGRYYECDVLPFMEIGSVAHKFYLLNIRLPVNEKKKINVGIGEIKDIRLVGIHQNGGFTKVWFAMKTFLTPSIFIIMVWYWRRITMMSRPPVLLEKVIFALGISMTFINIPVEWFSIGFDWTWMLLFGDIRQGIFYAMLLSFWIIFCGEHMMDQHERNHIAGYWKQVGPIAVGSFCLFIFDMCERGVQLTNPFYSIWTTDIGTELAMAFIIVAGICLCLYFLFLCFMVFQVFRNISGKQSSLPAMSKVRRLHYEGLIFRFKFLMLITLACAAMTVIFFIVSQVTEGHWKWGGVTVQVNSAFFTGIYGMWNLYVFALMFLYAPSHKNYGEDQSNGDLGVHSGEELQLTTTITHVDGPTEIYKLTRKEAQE
Nature of the test: co-IP; anti-Flag M2 affinity gel, 2 mg total lysate of 3×Flag-GPR177 stable HeLa cells, 8 h at 4°C, washed three times with 50 mM Tris HCl pH 7.5, 150 mM NaCl, 1 mM EDTA, 1% Triton X-100, eluted with 3×Flag peptides; precipitates blotted for vesicular markers.

Test [2] concerns the target GST-CDC42 (UniProt P60953). Nature of the test: pull-down; GST or GST fusion proteins on glutathione-agarose beads incubated with 1 mg lysate of 3×Flag-GPR177 stable HeLa cells for 1 h at 4°C, washed with PBS with 1% Triton X-100; anti-Flag western blot; only the target purified. In general terms: In western blotting, separated proteins are transferred to a membrane and probed.

The target in test [3] is GST-RAB8A (UniProt P61006). The test is described as above.

RAB8A (from UniProt P61006 1-207): in test [1], the binding result is “binds”.

B1: 3×Flag-GPR177 (protein, UniProt Q5T9L3 1-541)
chain: T1 sequence
With B1, the binding result in test [2] is on record as “no binding”; in test [3] it was “binds”.
